From patent publication US20240000838A1 (SIMCERE INNOVATION, published 2024)

Protein sequences, listed by entry. Tags and fused reporters are not part of them. Residues count along the entry.
UniProt P20138, 18-259 limits assumed: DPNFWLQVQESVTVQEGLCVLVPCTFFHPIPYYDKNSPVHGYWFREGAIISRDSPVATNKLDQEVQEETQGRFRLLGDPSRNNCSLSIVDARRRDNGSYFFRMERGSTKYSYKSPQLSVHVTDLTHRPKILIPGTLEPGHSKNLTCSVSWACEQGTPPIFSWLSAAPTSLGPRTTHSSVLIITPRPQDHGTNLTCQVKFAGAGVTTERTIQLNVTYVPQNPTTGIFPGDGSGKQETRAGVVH

Assays:
[1] = molecular target: T1, CD5 on human T cells (autologous and allogeneic Pan-T cells) and on the T-ALL cell line CCRF-CEM (human, UniProt P06127 25-495); test: cell-based or functional assay
T1 sequence (looked up): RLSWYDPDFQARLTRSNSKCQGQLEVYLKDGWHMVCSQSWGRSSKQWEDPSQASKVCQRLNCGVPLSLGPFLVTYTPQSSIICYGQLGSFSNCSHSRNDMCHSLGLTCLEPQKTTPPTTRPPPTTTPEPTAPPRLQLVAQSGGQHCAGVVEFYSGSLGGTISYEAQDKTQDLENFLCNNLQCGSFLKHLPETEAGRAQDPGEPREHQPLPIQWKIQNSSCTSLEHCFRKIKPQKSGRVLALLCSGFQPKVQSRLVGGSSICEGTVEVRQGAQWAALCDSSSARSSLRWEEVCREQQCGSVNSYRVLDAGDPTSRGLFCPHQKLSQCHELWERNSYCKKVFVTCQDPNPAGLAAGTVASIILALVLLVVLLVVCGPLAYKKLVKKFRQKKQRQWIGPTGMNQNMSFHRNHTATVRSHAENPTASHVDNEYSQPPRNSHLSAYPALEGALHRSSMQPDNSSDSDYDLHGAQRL

[2] = molecular target: T2, Human CD5 Protein, HisTag (AcroBiosystems, Cat #CD5-H52H5) (human, UniProt P06127 25-372); test: flow cytometry; CAR-T cells stained with soluble human CD5-His and His-APC antibody
T2 construct: Bought staining reagent, detected with His-APC antibody; also called CD5 antigen; APC labeled CD5 antigen; not shown: His tag
T2 sequence (looked up): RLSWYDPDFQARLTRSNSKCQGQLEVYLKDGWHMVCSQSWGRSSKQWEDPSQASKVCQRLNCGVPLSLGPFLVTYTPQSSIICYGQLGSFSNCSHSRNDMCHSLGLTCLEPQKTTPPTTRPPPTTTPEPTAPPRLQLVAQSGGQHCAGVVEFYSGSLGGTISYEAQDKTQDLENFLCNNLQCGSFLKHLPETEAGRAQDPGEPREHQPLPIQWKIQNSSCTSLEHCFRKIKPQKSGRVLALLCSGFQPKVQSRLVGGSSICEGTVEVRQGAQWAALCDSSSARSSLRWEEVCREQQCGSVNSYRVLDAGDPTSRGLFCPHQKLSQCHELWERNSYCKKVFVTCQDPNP
Procedure: (§1) CD3 and CD5 are stained with a CD3-FITC antibody (BD Biosciences, #555339) and a CD5-APC antibody (BD Biosciences, #555355) for 30 minutes at R.T. in the dark. CAR5 surface expression is detected by staining with Human CD5 Protein, HisTag (AcroBiosystems, Cat #CD5-H52H5) for 1 hour at R.T., washed and then incubated with His-APC antibody (R&D Systems, IC050A) for 30 minutes at R.T. in the dark. CAR33 expression is stained with CD33 human protein-PE (Sino Biological, 12238-HCCH_P) for 1 hour at R.T. All the staining is performed at 1:10 dilutions. DAPI (Thermo Scientific, Cat #BV-421, 1:5000) is used to stain dead cells before running by the Attune NxT Flow Cytometer (Thermo Fisher Scientific). Data is further analyzed by either using Attune NxT flow software or FlowJo software.

[3] = molecular target: T3, CD33 human protein-PE (Sino Biological, 12238-HCCH_P) (human, UniProt P20138 18-259, PE label); test: flow cytometry; CAR-T cells stained with CD33 human protein-PE
T3 construct: Bought staining reagent; also called CD33 antigen
Procedure: as §1

B1: CD5 CAR CAR5-1, construct S005 (other)
chain: DIKMTQSPSSMYASLGERVTITCKASQDINSYLSWFHHKPGKSPKTLIYRANRLVDGVPSRFSGSGSGQDYSLTISSLDYEDMGIYYCQQYDESPWTFGGGTKLEMKGGGGSGGGGSGGGGSNIQLVQSGPELKKPGETVKISCKASGYTFTNYGMNWVKQAPGKGLRWMGWINTHTGEPTYADDFKGRFAFSLETSASTAYLQINNLKNEDTATYFCTRRGYDWYFDVWGAGTTVTVSSASTTTPAPRPPTPAPTIASQPLSLRPEACRPAAGGAVHTRGLDFACDIYIWAPLAGTCGVLLLSLVITLYCKRGRKKLLYIFKQPFMRPVQTTQEEDGCSCRFPEEEEGGCELRVKFSRSADAPAYKQGQNQLYNELNLGRREEYDVLDKRRGRDPEMGGKPRRKNPQEGLYNELQKDKMAEAYSEIGMKGERRRGKGHDGLYQGLSTATKDTYDALHMQALPPR
notes: Chimeric antigen receptor (scFv ectodomain) on T cells
For B1, the “elimination of CCRF-CEM cells after 18 hours (luciferase-based killing assay)” value [1] was roughly 100% and the “% of T cells stained with CD5 antigen (CAR5 expression)” value [2] was greater than 80%.

B2: CD5 CAR CAR5-5, construct S009 (other)
chain: DIQMTQSPSSLSASVGDRVTITCRASQDINSYLSWFQQKPGKAPKTLIYRANRLESGVPSRFSGSGSGTDYTLTISSLQYEDFGIYYCQQYDESPWTFGGGTKLEIKGGGGSGGGGSGGGGSEIQLVQSGGGLVKPGGSVRISCAASGYTFTNYGMNWVRQAPGKGLEWMGWINTHTGEPTYADSFKGRFTFSLDDSKNTAYLQINSLRAEDTAVYFCTRRGYDWYFDVWGQGTTVTVSSASTTTPAPRPPTPAPTIASQPLSLRPEACRPAAGGAVHTRGLDFACDIYIWAPLAGTCGVLLLSLVITLYCKRGRKKLLYIFKQPFMRPVQTTQEEDGCSCRFPEEEEGGCELRVKFSRSADAPAYKQGQNQLYNELNLGRREEYDVLDKRRGRDPEMGGKPRRKNPQEGLYNELQKDKMAEAYSEIGMKGERRRGKGHDGLYQGLSTATKDTYDALHMQALPPR
notes: Chimeric antigen receptor on T cells
With B2 the “elimination of CCRF-CEM cells after 18 hours (luciferase-based killing assay)” value [1] was roughly 100% and the “% of T cells stained with CD5 antigen (CAR5 expression)” value [2] was greater than 80%.

B3: CD33 CAR CAR33-3, construct S013 (other)
chain: EIVLTQSPGSLAVSPGERVTMSCKSSQSVFFSSSQKNYLAWYQQIPGQSPRLLIYWASTRESGVPDRFTGSGSGTDFTLTISSVQPEDLAIYYCHQYLSSRTFGQGTKLEIKRGGGGSGGGGSGGGGSQVQLQQPGAEVVKPGASVKMSCKASGYTFTSYYIHWIKQTPGQGLEWVGVIYPGNDDISYNQKFQGKATLTADKSSTTAYMQLSSLTSEDSAVYYCAREVRLRYFDVWGQGTTVTVSSASTTTPAPRPPTPAPTIASQPLSLRPEACRPAAGGAVHTRGLDFACDIYIWAPLAGTCGVLLLSLVITLYCKRGRKKLLYIFKQPFMRPVQTTQEEDGCSCRFPEEEEGGCELRVKFSRSADAPAYKQGQNQLYNELNLGRREEYDVLDKRRGRDPEMGGKPRRKNPQEGLYNELQKDKMAEAYSEIGMKGERRRGKGHDGLYQGLSTATKDTYDALHMQALPPR
notes: as for B2
B3: binds [3].

B4: CD33 CAR CAR33-5, construct S015 (other)
chain: NIMLTQSPSSLAVSAGEKVTMSCKSSQSVFFSSSQKNYLAWYQQIPGQSPKLLIYWASTRESGVPDRFTGSGSGTDFTLTISSVQSEDLAIYYCHQYLSSRTFGGGTKLEIKRGGGGSGGGGSGGGGSQVQLQQPGAEVVKPGASVKMSCKASGYTFTSYYIHWIKQTPGQGLEWVGVIYPGNDDISYNQKFKGKATLTADKSSTTAYMQLSSLTSEDSAVYYCAREVRLRYFDVWGAGTTVTVSSASTTTPAPRPPTPAPTIASQPLSLRPEACRPAAGGAVHTRGLDFACDIYIWAPLAGTCGVLLLSLVITLYCKRGRKKLLYIFKQPFMRPVQTTQEEDGCSCRFPEEEEGGCELRVKFSRSADAPAYKQGQNQLYNELNLGRREEYDVLDKRRGRDPEMGGKPRRKNPQEGLYNELQKDKMAEAYSEIGMKGERRRGKGHDGLYQGLSTATKDTYDALHMQALPPR
notes: as for B2
B4: binds [3].
